Results deposited as PubChem BioAssay AID504774 (Drosophila RNAi Screening Center, 2011).
The deposit covers about 23,000 reagents; shown is a random part of those with a known target gene and a result. 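Values are quantile-normalised luminescence on an arbitrary scale; higher means more cells surviving MMS.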 The numbers tell different reagents against one gene apart. Not all columns of the deposit are shown.

- Screen: 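Knock-downs that shift viability of MMS-exposed cells relative to untreated ones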 (primary screen)
- Cells: Drosophila Kc167 cells
- Reagent: long dsRNA against Drosophila genes, about 0.25 µg dsRNA per well
- Timing: about 6 days: 3 days knock-down, then 3 days with or without MMS
- Conditions: methyl methanesulphonate 0.004% (w/v) for 3 days after knock-down
- Measured: 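Viability in wells given MMS, read as ATP luminescence, normalised by quantiles plate by plate and averaged across replicates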
- Scale: mean viability with MMS: higher = more surviving cells after MMS

What did the screen give for RyR?
mean viability with MMS: 3.69e6

What is on record for CG3009?
mean viability with MMS: 3.56e6

With snRNP-U1-70K #1, how do the results read?
mean viability with MMS: 3.73e6

For snRNP-U1-70K #2, what was measured?
mean viability with MMS: 3.18e6

For Fkbp39, how do the results read?
mean viability with MMS: 3.34e6

For Jhbp11, how do the results read?
mean viability with MMS: 3.49e6

For CG15209, what was measured?
mean viability with MMS: 3.60e6

What did the screen give for ENGase #1?
mean viability with MMS: 1.93e6

What is on record for ENGase #2?
mean viability with MMS: 3.49e6

Which result is listed for stck?
mean viability with MMS: 3.67e6

Which result is listed for CG15914?
mean viability with MMS: 3.40e6

With Mpp6, what was measured?
mean viability with MMS: 3.41e6

What is on record for CG10904?
mean viability with MMS: 3.56e6

With Gr2a, how do the results read?
mean viability with MMS: 3.60e6

With Cul3 #1, what was measured?
mean viability with MMS: 3.57e6

For Cul3 #2, what does the deposit list?
mean viability with MMS: 3.51e6

What is on record for Uch-L5?
mean viability with MMS: 3.46e6

With TM9SF3, how do the results read?
mean viability with MMS: 3.64e6

How did the screen score CG14739?
mean viability with MMS: 3.49e6

For CG9806, how do the results read?
mean viability with MMS: 3.56e6

With Nrt, how do the results read?
mean viability with MMS: 3.52e6

How did the screen score SmydA-9?
mean viability with MMS: 3.56e6

What is on record for Capa?
mean viability with MMS: 3.72e6

How did the screen score Mtpbeta?
mean viability with MMS: 3.54e6
